These results are taken from PubChem BioAssay AID336 (DTP/NCI, 2004).

The test system of the test is BDF1 mice, P388/VCR leukemia ip, median survival T/C. Briefly: NCI In Vivo Anticancer Drug Screen. Data for tumor model P388 Leukemia resistant to Vincristine; NSC 67574 (intraperitoneal) in B6D2F1 (BDF1) mice. The conditions noted are these: T/C endpoint: median survival time, higher T/C = longer survival. On the procedure: The antitumor activity of compounds was measured in mice bearing transplantable tumors. Survival or tumor size were measured and the results are expressed as the measurement made in the treated group (T) divided by the measurement made in the vehicle treated control group (C). The tumor model used in this assay is P388 Leukemia resistant to Vincristine; NSC 67574 (intraperitoneal) in B6D2F1 (BDF1) mice

[1] abbreviates: dose: 1.25 mg/kg/injection, schedule: Q01DX010 (ip), vehicle: saline.
[2] abbreviates: dose: 62.5 mg/kg/injection, schedule: Q01DX010 (ip), vehicle: saline.
[3] abbreviates: dose: 125.0 mg/kg/injection, schedule: Q01DX010 (ip), vehicle: saline.

The list shows only some results of the screen, not a fair sample: it gathers tests that were run many times, whatever their T/C, doses with no T/C, and many T/C values between a quarter and a half above the control. Other doses and runs of a compound stand elsewhere. T/C is the treated group as % of the vehicle group. Some doses have a count of surviving animals in place of a T/C: the source files T/C as zero there, which appears to mark a toxic dose or a test without result, not a measured value. Some doses without a T/C left all or most animals alive at the check, yet need not have been tolerated: the source hardly ever lists a survival T/C far under the control, and the zero likely stands for such cases as well. Counts of survivors are from the toxicity check (mostly the fifth day) where no day follows; animals may have died later. Schedule codes are those of the source, taken here to give the interval after Q, in days (D) or hours (H), and the number of doses after X. Some entries were tested several times; the values are given in rising order. Where survival is the endpoint, this PubChem deposit counts one and a half times the control or more as active, and values a quarter to a half above the control carry no call in these data; other NCI protocols may use other cut-offs. Signs of the kind (2×) say how often a value occurs here. Some T/C values are followed by the survivors on the day toxicity was checked, most often the fifth; without a count, all were alive then. *1 amine or outer side, *2 acyl side, *3 side chain or, on linkers, in order; H or OH if unused. Where a SMILES comes first, the peptide text is derived from it. Bridges are numbered along the chain shown (N, C = ends). Roman numbers before positions name the chains, in order. [ ]: non-standard residue; d: D form. Actinocin(9to1) = Cc1c2oc3c(C)ccc(C(=O)[*:1])c3nc-2c(C(=O)[*:2])c(N)c1=O; aThr = C[C@H](O)[C@H](N)C(=O)O; NMeV = CN[C@H](C(=O)O)C(C)C; Sar = CNCC(=O)O

Consider `CC[C@@]1(O)C[C@H](OC2CC(N(C)C)C(OC3CC(O)C(OC4CCC(=O)C(C)O4)C(C)O3)C(C)O2)c2c(cc3c(c2O)C(=O)c2c(O)ccc(O)c2C3=O)[C@H]1C(=O)OC` (stereo partly drawn), for which the T/C (dose: 1.73 mg/kg/injection, schedule: Q04DX003 (ip), vehicle: water) was 130 % of control.

On to `Oc1cc(CN(CCCl)CCCl)c(O)cc1CN(CCCl)CCCl`, for which the T/C runs as follows: (dose: 0.63 mg/kg/injection, schedule: Q01DX010 (ip), vehicle: saline) 126 and 133 % of control; under setting [1], 137 % of control; (dose: 2.5 mg/kg/injection, schedule: Q01DX010 (ip), vehicle: saline) 137 % of control [5 of 6 alive]. The survivor count under setting [1] is 3 of 6.

Regarding `CC(=O)Nc1ccc2nc3ccc(NC(C)=O)cc3[n+](-c3ccccc3)c2c1`, the survivor count runs as follows: (dose: 100.0 mg/kg/injection, schedule: Q01DX010 (ip), vehicle: saline) 6 of 6; (dose: 200.0 mg/kg/injection, schedule: Q01DX010 (ip), vehicle: saline) 5 of 6.

Regarding `O=CCC(O)C(O)C(O)CO` (stereo not drawn), the survivor count is 6 of 6 under setting [2] and 6 of 6 under setting [3].

As to `C[n+]1ccc(Nc2ccc(NC(=O)c3ccc(Nc4cc[n+](C)c5ccc(N)cc45)cc3)cc2)cc1`, the T/C (dose: 5.4 mg/kg/injection, schedule: Q04DX003 (ip), vehicle: water) is 136 % of control; the T/C (dose: 9.0 mg/kg/injection, schedule: Q04DX003 (ip), vehicle: water) is 138 % of control; the T/C (dose: 15.0 mg/kg/injection, schedule: Q04DX003 (ip), vehicle: water) was 148 % of control [6 of 8 alive].

On to `O=c1[nH]cc(F)c(=O)[nH]1`, for which the T/C was 135 and 140 % of control (dose: 5.0 mg/kg/injection, schedule: Q01DX010 (ip), vehicle: saline); 140 % of control (dose: 10.0 mg/kg/injection, schedule: Q01DX010 (ip), vehicle: saline). Moreover, the survivor count (dose: 40.0 mg/kg/injection, schedule: Q01DX010 (ip), vehicle: saline) was 6 of 6.

Regarding `Nc1nncs1`, where the note is “dose: 108.0 mg/kg/injection, schedule: Q04DX003 (ip), vehicle: saline”, the T/C was 129 % of control. Besides, the survivor count (dose: 300.0 mg/kg/injection, schedule: Q04DX003 (ip), vehicle: saline) was 3 of 8.

As to `CCC1(O)CC2CN(CCc3c([nH]c4ccccc34)C(C(=O)OC)(c3cc4c(cc3OC)N(C)C3C(O)(C(N)=O)C(O)C5(CC)C=CCN6CCC43C65)C2)C1` (stereo not drawn) (tested in a mixture with another compound), the T/C (dose: 2000.0 micrograms/kg/injection, schedule: Q04DX003 (ip), vehicle: saline) was 129 % of control. The survivor count (dose: 3000.0 micrograms/kg/injection, schedule: Q04DX003 (ip), vehicle: saline) is given as 8 of 8.

As for `CCOC(N)=O`, the survivor count under setting [3] is recorded as 6 of 6; the survivor count (dose: 250.0 mg/kg/injection, schedule: Q01DX010 (ip), vehicle: saline) is given as 6 of 6; the survivor count (dose: 1000.0 mg/kg/injection, schedule: Q01DX010 (ip), vehicle: saline) is 5 of 6 and 6 of 6.

`Nc1nc(=S)c2[nH]cnc2[nH]1`: the T/C (dose: 1.25 mg/kg/injection, schedule: Q01DX010 (ip), vehicle: other) is 142 % of control. Further, the survivor count (dose: 10.0 mg/kg/injection, schedule: Q01DX010 (ip), vehicle: other) was 0 of 6 and 6 of 6.

Take `CC(CCC(C)OS(C)(=O)=O)OS(C)(=O)=O` (stereo not drawn): the survivor count (dose: 4.0 mg/kg/injection, schedule: Q01DX010 (ip), vehicle: saline) was 6 of 6.

Turning to `COc1cccc2c1C(=O)c1c(O)c3c(c(O)c1C2=O)C[C@@](O)(C(=O)CO)C[C@@H]3OC1CC(N)C(O)C(C)O1` (stereo partly drawn), the T/C is 143 % of control (dose: 1.44 mg/kg/injection, schedule: Q04DX003 (ip), vehicle: water) and 145 % of control (dose: 6.67 mg/kg/injection, schedule: Q04DX003 (ip), vehicle: water).

In the case of `CCn1cnc2c(=S)nc[nH]c21`, the survivor count under setting [3] is given as 6 of 6.

`CCOC(=O)NP(=O)(N1CC1(C)C)N1CC1(C)C` (stereo not drawn): the T/C under setting [2] is 146 % of control.

For the compound `CO[C@H]1Nc2c(ccc(C)c2O)C(=O)N2C=C(/C=C/C(N)=O)C[C@@H]12`, the T/C by setting is: (dose: 216.0 micrograms/kg/injection, schedule: Q04DX003 (ip), vehicle: saline + alcohol) 143 % of control; (dose: 252.0 micrograms/kg/injection, schedule: Q04DX003 (ip), vehicle: saline + alcohol) 138 % of control; (dose: 420.0 micrograms/kg/injection, schedule: Q04DX003 (ip), vehicle: saline + alcohol) 129 % of control. Also, the survivor count is, setting by setting: (dose: 600.0 micrograms/kg/injection, schedule: Q04DX003 (ip), vehicle: saline + alcohol) 7 of 8; (dose: 700.0 micrograms/kg/injection, schedule: Q04DX003 (ip), vehicle: saline + alcohol) 8 of 8; (dose: 1000.0 micrograms/kg/injection, schedule: Q04DX003 (ip), vehicle: saline + alcohol) 3 of 8.

For the compound `C1CN1c1nc(N2CC2)nc(N2CC2)n1`, the survivor count (dose: 1.0 mg/kg/injection, schedule: Q01DX010 (ip), vehicle: saline) was 6 of 6.

For the compound `Nc1cc(C(=O)Nc2ccc(C3=NCCN3)cc2)cc(C(=O)Nc2ccc(C3=NCCN3)cc2)c1`, the T/C (dose: 16.0 mg/kg/injection, schedule: Q01DX010 (ip), vehicle: saline) was 130 % of control. For the setting “dose: 128.0 mg/kg/injection, schedule: Q01DX010 (ip), vehicle: saline”, the survivor count is 3 of 6.

`CNc1nc(Nc2ccc(C3=NCCN3)cc2)nc(Nc2ccc(C3=NCCN3)cc2)n1`: where the note is “dose: 13.3 mg/kg/injection, schedule: Q01DX010 (ip), vehicle: saline”, the T/C is 125 % of control.

Take `CN(C)c1ccc(/C=C/c2ccnc3ccccc23)cc1`: the survivor count (dose: 20.0 mg/kg/injection, schedule: Q01DX010 (ip), vehicle: saline) is given as 6 of 6.

As to `COc1ccc(CC2C(=O)NC(C)C(=O)N(C)C3Cc4ccc(cc4)Oc4cc(ccc4O)CC(C(=O)NC(C)C(=O)NC(C)C(=O)N2C)N(C)C3=O)cc1` (stereo not drawn), the survivor count by setting is: (dose: 12.0 mg/kg/injection, schedule: Q04DX003 (ip), vehicle: other) 3 of 8; (dose: 20.0 mg/kg/injection, schedule: Q04DX003 (ip), vehicle: other) 1 of 8.

For `O=C(Nc1ccc(NC(=O)Nc2ccc(C3=NCCN3)cc2)cc1)Nc1ccc(C2=NCCN2)cc1`, the T/C (dose: 110.0 mg/kg/injection, schedule: Q01DX010 (ip), vehicle: saline) was 140 % of control and the T/C (dose: 165.0 mg/kg/injection, schedule: Q01DX010 (ip), vehicle: saline) was 145 % of control.

With `O=P1(N(CCCl)CCCl)NCCCO1` (stereo not drawn), the T/C (dose: 86.4 mg/kg/injection, schedule: Q01DX001 (ip), vehicle: saline) is 149 % of control. For the same compound, under “dose: 400.0 mg/kg/injection, schedule: Q01DX001 (ip), vehicle: saline”, the survivor count was 7 of 8.

With `Cc1c2oc3c(C)ccc(C(=O)N[C@@H]4C(=O)N[C@H](C(C)C)C(=O)N5CCC[C@H]5C(=O)N(C)CC(=O)N(C)[C@@H](C(C)C)C(=O)O[C@H]4C)c3nc-2c(C(=O)N[C@@H]2C(=O)N[C@H](C(C)C)C(=O)N3CCC[C@H]3C(=O)N(C)CC(=O)N(C)[C@@H](C(C)C)C(=O)O[C@H]2C)c(N)c1=O` (I: [aThr][dV]P[Sar][NMeV] / II: [aThr][dV]P[Sar][NMeV]; ester I:1-I:C, II:1-II:C; linker I:N-II:N via Actinocin(9to1)), the T/C (dose: 50.0 micrograms/kg/injection, schedule: Q01DX010 (ip), vehicle: other) is 136 % of control (2×); the T/C (dose: 100.0 micrograms/kg/injection, schedule: Q01DX010 (ip), vehicle: other) is 140 and 144 % of control.

Consider `O=C(Nc1ccc(C2=NCCN2)cc1)c1ccc(C(=O)Nc2ccc(C3=NCCN3)cc2)cc1`, for which the T/C (dose: 75.0 mg/kg/injection, schedule: Q01DX010 (ip), vehicle: saline) was 130 % of control.

`S=P(N1CC1)(N1CC1)N1CC1`: the T/C (dose: 3.0 mg/kg/injection, schedule: Q01DX010 (ip), vehicle: saline) was 145 % of control.

Regarding `COc1cc(-c2ccc(Nc3ccccc3C(=O)O)c(OC)c2)ccc1Nc1ccccc1C(=O)O`, the T/C (dose: 45.0 mg/kg/injection, schedule: Q01DX010 (ip), vehicle: saline) was 125 % of control. Moreover, the survivor count was 0 of 6 (dose: 67.0 mg/kg/injection, schedule: Q01DX010 (ip), vehicle: saline) and 6 of 6 (dose: 150.0 mg/kg/injection, schedule: Q01DX010 (ip), vehicle: saline).
